Assay results from PubChem BioAssay AID540256 (National Center for Advancing Translational Sciences (NCATS), 2011).
Where “and” joins values, the source holds several entries; their conditions need not be identical. Equal values may be shown once. Screen size: about 300,000 compounds; about 3,700 (1.2%) were called active. The inconclusive results got no clear call from the source; some entries with a clear call stand among them for comparison. Calls come from the whole dose curve; tested in HEK293 cells. Where the call is inconclusive, the potency comes from a doubtful curve fit.
Potency is the fitted concentration of half-maximal effect.

Test: qHTS for Inhibitors of binding or entry into cells for Lassa Virus; note: nearly all actives have a fitted effect of over 50% in size
Conditions: Lassa virus pseudotype entry inhibition, cell reporter; series mostly up to 37.9 µM
For `COc1ccc(NS(=O)(=O)c2ccc(C)c(C(=O)N3CCN(Cc4cc(OC)ccc4OC)CC3)c2)cc1`, the Potency was inconclusive: 35.5 µM [inhibitor, single point].
In the case of `Cc1cccc(NC(=O)c2sc(Cl)nc2C)c1C`, the Potency was “inactive”.
With `Nc1ccc(C(=O)Nc2ccc3cc(S(=O)(=O)O)ccc3c2)cc1` the Potency was “inactive”.
For `COc1ccc(Cl)cc1NC(=O)Cn1cc(S(=O)(=O)Cc2cccc(Cl)c2)c2ccccc21`, the Potency was inconclusive: 2.51 µM [inhibitor, full curve, poor fit].
With `N#C/C(=C\c1ccc(-c2ccc(C(=O)O)cc2)o1)c1nc2ccccc2[nH]1` the Potency was inconclusive: 12.6 µM [activator, partial curve] and inconclusive: 17.8 µM [inhibitor, single point].
In the case of `CCOC(=O)N1CCC2(CC1)C(C#N)=C(N)Oc1n[nH]c(CSc3ccc(C)cc3)c12`, the Potency was inconclusive: 29.1 µM [inhibitor, single point].
In the case of `O=C(COc1ccc(C(=O)c2ccccc2)cc1)Nc1cccnc1`, the Potency was inconclusive: 7.08 µM [inhibitor, full curve, poor fit].
With `COC(=O)c1ccc(Oc2ccc(S(=O)(=O)N3CCCCC3)cc2N)cc1` the Potency was inconclusive: 11.2 µM [inhibitor, partial curve, poor fit].
For `CCC(=NCc1ccco1)c1c(O)n(-c2ccc(Cl)cc2)c(=O)[nH]c1=O`, the Potency was inconclusive: 0.708 µM [inhibitor, full curve].
With `Cc1ccc(NC2=C(Cl)C(=O)OC2OC(=O)c2ccccc2C)cc1` (configuration not stated) the Potency was inconclusive: 35.5 µM [inhibitor, single point].
In the case of `Cn1c(N)c(C(=O)COC(=O)c2cccc(S(=O)(=O)N3CCCCC3)c2)c(=O)n(C)c1=O`, the Potency was “inactive”.
With `COc1ccc(C(C)(C)C)cc1NC(=O)c1ccc[n+]([O-])c1` the Potency was “inactive”.
With `N[C@@]1(C(=O)O)CC[C@@H](C(=O)O)C1` the Potency was inconclusive: 13 µM [activator, partial curve, poor fit].
For `CCOC(=O)C1=C(CC)Nc2ccccc2N=C1NC(=O)CCNC(C)=O`, the Potency was active: 2.82 µM.
For `CCN(CC(=O)Nc1ccc(NC(C)=O)cc1)C(=O)/C=C/c1cn(Cc2ccccc2)nc1-c1cccnc1`, the Potency was inconclusive: 1.12 µM [inhibitor, partial curve, poor fit].
With `C(=C\c1ccccn1)/c1ccccn1` the Potency was “inactive”.
With `O=C(CSc1nc2ccccc2o1)Nc1nc2ccccc2s1` the Potency was inconclusive: 6.51 µM [activator, single point].
For `COc1c(C(=O)NCCSC(C)(C)C)ccc2ccccc12`, the Potency was inconclusive: 3.16 µM [activator, partial curve, poor fit].
With `CCCN1C(C(=O)c2ccccc2)=C(OC(=O)c2ccc(C)cc2)c2ccccc2S1(=O)=O` the Potency was inconclusive: 22.4 µM [inhibitor, single point].
With `O=C(NC12CC3CC(CC(C3)C1)C2)N1CCN(c2ccccn2)CC1` the Potency was “inactive”.
For `COc1cnc(SCc2ccc(Cl)cc2Cl)nc1Cl`, the Potency was inconclusive: 18.3 µM [activator, partial curve, poor fit].
In the case of `Cc1ccc(NC(=O)Cn2c(=O)ccc3cc(S(=O)(=O)N4CCC(C)CC4)ccc32)cc1C`, the Potency was “inactive”.
For `CCOC(=O)CNC(=O)c1ccc(SCC)cc1`, the Potency was “inactive”.
For `CCCCNC(=S)N(C)/N=C/c1c(C)[nH]c2ccccc12`, the Potency was inconclusive: 35.5 µM [inhibitor, single point].
In the case of `O=S(=O)(c1cccc(-c2cn3ccccc3n2)c1)N1CCCC1`, the Potency was inconclusive: 35.5 µM [inhibitor, single point].
In the case of `CC(=O)N(Nc1ccccc1)c1ccccc1`, the Potency was inconclusive: 0.794 µM [activator, full curve, poor fit].
With `CC1=Nc2ccccc2N=C(NC(=O)c2ccccc2)C1c1ccc(Cl)cc1` (configuration not stated) the Potency was inconclusive: 12.6 µM [inhibitor, partial curve, poor fit].
In the case of `CCn1cc(C(=O)O)c(=O)c2cc3c(cc21)OCO3`, the Potency was inconclusive: 1.3 µM [activator, full curve].
With `COc1ccc(NC(=O)c2cccc(N3C(=O)C4C5C=CC(C6CC56)C4C3=O)c2)cc1` (configuration not stated) the Potency was “inactive”.
In the case of `CCOc1ccc(NC(=O)c2oc3ccccc3c2NC(=O)Cc2cccc(C)c2)cc1`, the Potency was “inactive”.
With `Cc1nn(C)cc1/C=C/C(=O)c1ccc(O)cc1` the Potency was inconclusive: 5.62 µM [activator, single point].
For `CCOc1ccccc1-n1nnc(S(=O)(=O)c2ccc(C)cc2)c1N`, the Potency was inconclusive: 0.562 µM [inhibitor, full curve, poor fit].
In the case of `CCOC(=O)c1cc(NC(=O)CSc2nnc(CN3CCOCC3)n2C)ccc1Cl`, the Potency was inconclusive: 1.26 µM [inhibitor, single point].
With `Cc1ccc(NC(=O)c2nc(-c3ccncc3)no2)c(Cl)c1` the Potency was “inactive”.
With `O=C(COCc1cc(-c2ccco2)on1)Nc1cccc(Cl)c1Cl` the Potency was “inactive”.
With `Cc1ccc(NC(=O)CSc2nc(-c3ccco3)cc(C(F)(F)F)n2)cc1C` the Potency was inconclusive: 10.3 µM [inhibitor, partial curve, poor fit] and inconclusive: 6.31 µM [inhibitor, single point].
For `C/C(CCc1oc2ccccc2c1-c1ccc(C)o1)=N/O`, the Potency was “inactive”.
For `COc1cc(-c2nc3cccc(C)n3c2NCC2CCCO2)ccc1O` (configuration not stated), the Potency was inconclusive: 22.4 µM [activator, single point].
For `Cc1ccc(CNCc2cc3c(C(C)(C)C)nn(-c4ccccc4)c3[nH]c2=O)cc1`, the Potency was inconclusive: 32.6 µM [inhibitor, single point].
With `CCOC(=O)c1nn(-c2ccccc2F)c(-c2ccccc2)c1C(=O)c1ccccc1` the Potency was inconclusive: 35.5 µM [inhibitor, single point].
In the case of `O=c1c2cnn(-c3ccccc3)c2nc(-c2cccs2)n1-c1cccc(Cl)c1`, the Potency was “inactive”.
With `CC(C)(C)n1nnnc1C(c1cccs1)N(Cc1ccccc1)Cc1cccnc1` (configuration not stated) the Potency was “inactive”.
With `CC#CCN(Cc1ccco1)C(=O)C1CCC(=O)N(Cc2ccccc2F)C1` (configuration not stated) the Potency was inconclusive: 11.2 µM [inhibitor, partial curve, poor fit].
In the case of `CCCCN(CC)CCCNC(=O)c1cn(CC)c2ccc(S(=O)(=O)N3CCOCC3)cc2c1=O`, the Potency was “inactive”.
With `CC(C)(C)C(=O)NC1(C(F)(F)F)NC(=O)N(Cc2ccccc2)C1=O` (configuration not stated) the Potency was inconclusive: 3.55 µM [inhibitor, single point].
With `CCOc1ccc(-c2noc(-c3cccnc3)n2)cc1OC` the Potency was “inactive”.
In the case of `Cc1cc(SCC(=O)NCc2ccc(F)cc2)nc(=O)[nH]1`, the Potency was “inactive”.
With `CCN(CC)S(=O)(=O)c1ccc(Cl)c(NC(C)=O)c1` the Potency was “inactive”.
For `COc1ccc(C2=Nn3c(nnc3-c3ccc(OC)cc3)SC2)cc1`, the Potency was active: 1.3 µM.
For `O=C1c2ccccc2C(=O)N1CCCCN(C(=O)c1cc([N+](=O)[O-])ccc1Cl)c1ccc(Cl)cc1`, the Potency was inconclusive: 14.1 µM [inhibitor, partial curve, poor fit].
With `O=S(=O)(/N=C(/Nc1ccc(Cl)c(S(=O)(=O)N2CCOCC2)c1)c1ccc(F)cc1)c1ccccc1` the Potency was inconclusive: 11.2 µM [inhibitor, partial curve, poor fit].
With `Cc1nnc(C)n1/N=C/c1cc(Br)cc(Br)c1O` the Potency was inconclusive: 0.891 µM [inhibitor, full curve, poor fit].
With `COc1ccc(-c2nnc(SCC(=O)Nc3ncc(C(F)(F)F)cc3Cl)n2CC(C)C)cc1` the Potency was “inactive”.
For `CN(C)S(=O)(=O)c1ccc(C(=O)Nc2ccccc2F)cc1`, the Potency was inconclusive: 25.9 µM [inhibitor, single point].
For `O=[N+]([O-])c1ccc(C=Nc2ccc(Cl)cc2Cl)s1`, the Potency was active: 16.4 µM.
With `COC(=O)c1sc(NC(=O)/C=C/c2ccc(C)o2)nc1C` the Potency was inconclusive: 3.98 µM [activator, partial curve, poor fit].
In the case of `CC(C)(C)NCC(O)(c1ccc(Cl)cc1)c1ccc(Cl)cc1`, the Potency was inconclusive: 7.08 µM [inhibitor, full curve].
With `O=C(NCC1CCN(Cc2ccc(F)cc2)CC1)c1cc2ccc3cccnc3c2[nH]1` the Potency was inconclusive: 35.5 µM [inhibitor, single point].
With `Cc1ccc(NS(=O)(=O)c2ccc(C(=O)NC3CCN(Cc4ccccc4)CC3)cc2)cc1` the Potency was active: 11.2 µM.
In the case of `CCc1cc2c(-c3ccccc3)cc(=O)oc2cc1OC(C)C(C)=O` (configuration not stated), the Potency was inconclusive: 35.5 µM [inhibitor, single point].
In the case of `Cn1cc(C(=O)C(=O)N2CCCc3ccccc32)c2ccccc21`, the Potency was inconclusive: 8.91 µM [inhibitor, partial curve, poor fit].
For `CC(C)(C)c1ccc(/C=N/N2CCN(c3ccccn3)CC2)cc1`, the Potency was inconclusive: 35.5 µM [inhibitor, partial curve, poor fit].
In the case of `CN(C)CCC(C(=O)c1ccccc1)c1ccccn1` (configuration not stated), the Potency was inconclusive: 15.8 µM [activator, partial curve, poor fit].
For `Cc1cc(C(=O)Cn2nnc3ccccc3c2=O)c(C)n1Cc1cccs1`, the Potency was inconclusive: 0.231 µM [activator, full curve, poor fit].
With `O=C(O)c1ccc(COc2ccc(Cl)cc2)o1` the Potency was inconclusive: 20.6 µM [activator, single point].
For `COc1ccc(/C=N/NS(=O)(=O)c2ccccc2)cc1OC(=O)c1ccc(C)cc1`, the Potency was inconclusive: 2.82 µM [inhibitor, partial curve, poor fit].
For `O=C1C2CSCN2C(=O)CN1CCCN1CCN(C(c2ccccc2)c2ccccc2)CC1` (configuration not stated), the Potency was inconclusive: 14.6 µM [inhibitor, partial curve, poor fit].
